# Assay results taken from PubChem BioAssay AID1347426 (Functional Genomics Laboratory (NCATS/FGL), 2020).
# Among all 31,000 sequences or so, about 1,400 (4.5%) were called active.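 The calls were made as follows: active = median seed-adjusted z-score above 1 or below -1; inactive = the rest.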 The list shows a part of the results.
# Assay: Novel Modifiers of Survival Motor Neuron (SMN) Protein: Gene Identification via Genome-wide siRNA Screen;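 also: luminescence tracks full-length SMN protein made from the SMN2 reporter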
# Conditions: HEK293T SMN2-luciferase reporter, siRNA knockdown, 72 h; actives lie on both sides
# Outline: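 Luciferase signal, proportional to full-length SMN made from an SMN2 cDNA reporter in stable HEK293T cells, was read 72 h after siRNA reverse transfection. Values were expressed as MAD scores after non-targeting-control normalization and log10 conversion; seed analysis flagged off-targets.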
row,Sequence,median seed-adjusted z-score
1,GCACGAUAUUAUGAUCCAATT against PPAT,active: -1.51
2,GCUCUAGGCUUCAAGGCAATT against CTSL3,active: 1.07
3,GGUACCAACAAAUACGAUATT against INPP5J,inactive: 0.223
4,GGAUCAUGACCUAUGCUAATT against AKAP3,inactive: 0.0138
5,AUCCGUAACUGCUACCAGATT against COX6B2,inactive: -0.544
6,GGGCAGGUGUGAUACCUAUTT against RUVBL1,inactive: -0.834
7,GGUCCUCAGUAUAAAAUCATT against NOTCH2NL,inactive: 0.586
8,GGAAGCACAUCUACCUACATT against AMZ1,inactive: 0.205
9,CCCUGACGGUCAUCGAGAATT against 9-Mar,inactive: 0.261
10,GGUGUGCACUGUGAGAUCATT against NOTCH1,inactive: 0.116
11,CAGGCACAGUUGCCGAUUATT against CD247,inactive: -0.522
12,CGCAAUUAAUUAGUAGUGATT against RBAK,inactive: 0
13,CACCCGCAAGUGGACUUUATT against ACTL7B,inactive: 0.572
14,CUUUCGAGAUUUUAUUGAATT against JRKL,inactive: -0.227
15,GAUGGAAGAGGUAAAAUGATT against GADL1,inactive: 0
16,CAACAAUGCCGGAAUCGUATT against SDR16C5,inactive: -0.0558
17,CCUCUUUAUUUACCACCUUTT against CUGBP2,inactive: -0.532
18,GAGAGACUCAAGAACGUGATT against ARCN1,active: -1.25
19,CACAAGUUCUUGAUAAGUUTT against ASAP1,inactive: 0.0592
20,AGGUCCCAGUGAAUGAAAATT against MTHFS,inactive: 0.166
21,CGGUUACAAGAGGCCUUAATT against RYR1,inactive: -0.474
22,GGAGAUCCAUGGUAGCUUATT against SIRT5,inactive: 0.39
23,GGAAGAAUUUUGAGAGUCATT against HEMK1,inactive: 0.101
24,GGAUUUUACAGGAUAUCUUTT against SPPL2A,inactive: -0.358
25,GAAAGUAUACAGAACAGAUTT against NDUFA5,inactive: -0.0429
26,CGAUCGCUACUGCUCCAUUTT against ADAMTS14,inactive: 0.209
27,CGAUUCGUCUGAGCGAAUATT against SYNPO2,inactive: 0
28,GAUUAUCAAGUGCUAGGAATT against ZW10,inactive: 0.199
29,AGUUUGACAUGGUGAGUGATT against PSMC3IP,inactive: -0.0482
30,GAAAAUACCUGACCCUAGATT against TPP1,inactive: -0.0334

# Taken from above.
# median seed-adjusted z-score with GCACGAUAUUAUGAUCCAATT against PPAT reads active: -1.51
# median seed-adjusted z-score with GGUGUGCACUGUGAGAUCATT against NOTCH1 reads inactive: 0.116
